# Source: the supplement of paper PMC8728848
# Some of the results follow.
# B1: PX14375A-pdi-503-28-503 (Parabacteroides distasonis) (protein)
# chain: PLGSPEAGDISEERQAFLRLTAVYSVMKDFRYTWSMQCFGDVLSNDATYSGSSNDAQTFTLLENYQYQADHTEILNKYRYSYQCINKANLFIRDMEMADDALFSKYDKEQMIGEAKFIRAYTYFELVKTFGGVPCYTGVLDLDHERLGRASVEEIYSVIEQDLNDAVSVLPKKSEVANYESSYAGRITKGAAIAMQTRIYLYEKKYDEVKKAFEKFQNECGGEYSLVAPEDYTWQFSLDGEHCSSSILEVNMYNSSTQSSYNVNNGNRHVLMSMPRNMTIGFGCAQPTQALADAYDAEGDVIRKKTTLLSTEEAIEIETAAKGDVAPVTDDRTGWYNRKLYLAPGQREENRGNNQPTNLRLIRLAEVYLNYAEACYFSGDIANAQKYLNEVRSHVNLAPKNHTGSQLFEDIMNERHLEFGMEGFRFFDVVRVGWGEKVFNGTKKAEFGAKTPFSAGAEVLPIPQTEIDISDGLITN
# Columns and labels:
# Test in all cases: glycan array binding signal (z-score within array); higher = stronger binding
# Details in all cases: glycan notation: IUPAC condensed, linker removed
# [1] = target: Neu5Ac(a2-6)Gal(b1-4)GlcNAc(b1-3)Gal(b1-4)GlcNAc(b1-3)Gal(b1-4)GlcNAc(b1-2)Man(a1-3)[Neu5Ac(a2-6)Gal(b1-4)GlcNAc(b1-3)Gal(b1-4)GlcNAc(b1-3)Gal(b1-4)GlcNAc(b1-2)Man(a1-6)]GalNAc
# Procedure, shortened: (§1)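 The binding signal is a Z-score computed within each array. Data were drawn from 3228 arrays in the Consortium for Functional Glycomics database, restricted to those with a known protein sequence. Scores were averaged over arrays of the same protein sequence at different concentrations or buffers, and over linkers, and negative values can be taken as non-binding.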
# [2] = target: Neu5Ac(a2-6)Gal(b1-4)GlcNAc(b1-3)Gal(b1-4)GlcNAc(b1-3)GalNAc
# Procedure, shortened: as §1
# [3] = target: Neu5Ac(a2-6)Gal(b1-4)GlcNAc(b1-3)Gal(b1-4)GlcNAc(b1-3)[Neu5Ac(a2-6)Gal(b1-4)GlcNAc(b1-3)Gal(b1-4)GlcNAc(b1-6)]GalNAc
# Procedure, shortened: as §1
# [4] = target: Neu5Ac(a2-6)Gal(b1-4)GlcNAc(b1-3)Gal(b1-4)GlcNAc(b1-6)[Gal(b1-3)]GalNAc
# Procedure, shortened: as §1
# [5] = target: Neu5Ac(a2-6)Gal(b1-4)GlcNAc(b1-3)Gal(b1-4)[Fuc(a1-3)]GlcNAc(b1-3)Gal(b1-4)[Fuc(a1-3)]GlcNAc
# Procedure, shortened: as §1
# [6] = target: Neu5Ac(a2-6)Gal(b1-4)GlcNAc(b1-3)GalNAc
# Procedure, shortened: as §1
# [7] = target: Neu5Ac(a2-6)Gal(b1-4)GlcNAc(b1-3)[Neu5Ac(a2-6)Gal(b1-4)GlcNAc(b1-6)]GalNAc
# Procedure, shortened: as §1
# [8] = target: Neu5Ac(a2-6)Gal(b1-4)GlcNAc(b1-6)GalNAc
# Procedure, shortened: as §1
# [9] = target: Neu5Ac(a2-6)Gal(b1-4)GlcNAc(b1-6)[Gal(b1-3)GlcNAc(b1-3)]Gal(b1-4)Glc
# Procedure, shortened: as §1
# [10] = target: Neu5Ac(a2-6)Gal(b1-4)GlcNAc(b1-6)[Gal(b1-3)]GalNAc
# Procedure, shortened: as §1
# [11] = target: Neu5Ac(a2-6)Gal(b1-4)GlcNAc6S
# Procedure, shortened: as §1
# Neu5Ac(a2-6)GalNAc = target: Neu5Ac(a2-6)GalNAc
# Procedure, shortened: as §1
# [12] = target: Neu5Ac(a2-6)GalNAc(b1-4)GlcNAc
# Procedure, shortened: as §1
# [13] = target: Neu5Ac(a2-6)GalNAc(b1-4)GlcNAc6S
# Procedure, shortened: as §1
# [14] = target: Neu5Ac(a2-6)GlcNAc(b1-4)GlcNAc
# Procedure, shortened: as §1
# [15] = target: Neu5Ac(a2-6)GlcNAc(b1-4)GlcNAc(b1-4)GlcNAc
# Procedure, shortened: as §1
# Neu5Ac(a2-8)Neu5Ac = target: Neu5Ac(a2-8)Neu5Ac
# Procedure, shortened: as §1
# [16] = target: Neu5Ac(a2-8)Neu5Ac(a2-3)Gal(b1-3)GalNAc(b1-4)[Neu5Ac(a2-3)]Gal(b1-4)Glc
# Procedure, shortened: as §1
# [17] = target: Neu5Ac(a2-8)Neu5Ac(a2-3)Gal(b1-3)GalNAc(b1-4)[Neu5Ac(a2-8)Neu5Ac(a2-3)]Gal(b1-4)Glc
# Procedure, shortened: as §1
# [18] = target: Neu5Ac(a2-8)Neu5Ac(a2-3)Gal(b1-4)Glc
# Procedure, shortened: as §1
# [19] = target: Neu5Ac(a2-8)Neu5Ac(a2-3)Gal(b1-4)GlcNAc
# Procedure, shortened: as §1
# [20] = target: Neu5Ac(a2-8)Neu5Ac(a2-3)[Gal(b1-3)GalNAc(b1-4)]Gal(b1-4)Glc
# Procedure, shortened: as §1
# [21] = target: Neu5Ac(a2-8)Neu5Ac(a2-3)[GalNAc(b1-4)]Gal(b1-4)Glc
# Procedure, shortened: as §1
# [22] = target: Neu5Ac(a2-8)Neu5Ac(a2-8)Neu5Ac
# Procedure, shortened: as §1
# [23] = target: Neu5Ac(a2-8)Neu5Ac(a2-8)Neu5Ac(a2-3)Gal(b1-4)Glc
# Procedure, shortened: as §1
# [24] = target: Neu5Ac(a2-8)Neu5Ac(a2-8)Neu5Ac(a2-3)[Gal(b1-3)GalNAc(b1-4)]Gal(b1-4)Glc
# Procedure, shortened: as §1
# [25] = target: Neu5Ac(a2-8)Neu5Ac(a2-8)Neu5Ac(a2-3)[GalNAc(b1-4)]Gal(b1-4)Glc
# Procedure, shortened: as §1
# [26] = target: Neu5Ac(a2-8)Neu5Ac(a2-8)Neu5Ac(a2-8)Neu5Ac(a2-3)[GalNAc(b1-4)]Gal(b1-4)Glc
# Procedure, shortened: as §1
# [27] = target: Neu5Ac(a2-8)Neu5Gc(a2-3)Gal(b1-4)GlcNAc
# Procedure, shortened: as §1
# [28] = target: Neu5Ac(b2-6)Gal(b1-4)GlcNAc
# Procedure, shortened: as §1
# Neu5Ac(b2-6)GalNAc = target: Neu5Ac(b2-6)GalNAc
# Procedure, shortened: as §1
# [29] = target: Neu5Ac9Ac(a2-3)Gal(b1-3)GlcNAc
# Procedure, shortened: as §1
# [30] = target: Neu5Ac9Ac(a2-3)Gal(b1-4)GlcNAc
# Procedure, shortened: as §1
# [31] = target: Neu5Ac9Ac(a2-6)Gal(b1-4)GlcNAc
# Procedure, shortened: as §1
# [32] = target: Neu5Gc(a2-3)Gal(b1-3)GlcNAc
# Procedure, shortened: as §1
# [33] = target: Neu5Gc(a2-3)Gal(b1-3)[Fuc(a1-4)]GlcNAc
# Procedure, shortened: as §1
# Neu5Gc(a2-3)Gal(b1-4)Glc = target: Neu5Gc(a2-3)Gal(b1-4)Glc
# Procedure, shortened: as §1
# [34] = target: Neu5Gc(a2-3)Gal(b1-4)GlcNAc
# Procedure, shortened: as §1
# [35] = target: Neu5Gc(a2-3)Gal(b1-4)GlcNAc(b1-3)Gal(b1-4)GlcNAc(b1-2)Man(a1-3)[Neu5Gc(a2-3)Gal(b1-4)GlcNAc(b1-3)Gal(b1-4)GlcNAc(b1-2)Man(a1-6)]Man(b1-4)GlcNAc(b1-4)GlcNAc
# Procedure, shortened: as §1
# [36] = target: Neu5Gc(a2-3)Gal(b1-4)[Fuc(a1-3)]GlcNAc
# Procedure, shortened: as §1
# [37] = target: Neu5Gc(a2-6)Gal(b1-4)GlcNAc
# Procedure, shortened: as §1
# Neu5Gc(a2-6)GalNAc = target: Neu5Gc(a2-6)GalNAc
# Procedure, shortened: as §1
# [38] = target: Neu5Gc(a2-8)Neu5Ac(a2-3)Gal(b1-4)GlcNAc
# Procedure, shortened: as §1
# [39] = target: Neu5Gc(a2-8)Neu5Gc(a2-3)Gal(b1-4)GlcNAc
# Procedure, shortened: as §1
# [40] = target: Neu5Gc(a2-8)Neu5Gc(a2-3)Gal(b1-4)GlcNAc(b1-3)Gal(b1-4)GlcNAc
# Procedure, shortened: as §1
binder,measurement,setting,value
B1,glycan array binding signal (z-score),[1],1.64
same,glycan array binding signal (z-score),[2],0.439
same,glycan array binding signal (z-score),[3],1.16
same,glycan array binding signal (z-score),[4],-0.493
same,glycan array binding signal (z-score),[5],-0.365
same,glycan array binding signal (z-score),[6],-0.633
same,glycan array binding signal (z-score),[7],0.786
same,glycan array binding signal (z-score),[8],-1.3
same,glycan array binding signal (z-score),[9],-0.029
same,glycan array binding signal (z-score),[10],-0.287
same,glycan array binding signal (z-score),[11],-0.043
same,glycan array binding signal (z-score),Neu5Ac(a2-6)GalNAc,-0.976
same,glycan array binding signal (z-score),[12],0.545
same,glycan array binding signal (z-score),[13],0.576
same,glycan array binding signal (z-score),[14],-0.047
same,glycan array binding signal (z-score),[15],-0.752
same,glycan array binding signal (z-score),Neu5Ac(a2-8)Neu5Ac,-0.35
same,glycan array binding signal (z-score),[16],-0.127
same,glycan array binding signal (z-score),[17],0.275
same,glycan array binding signal (z-score),[18],0.052
same,glycan array binding signal (z-score),[19],-0.905
same,glycan array binding signal (z-score),[20],0.562
same,glycan array binding signal (z-score),[21],0.124
same,glycan array binding signal (z-score),[22],-0.278
same,glycan array binding signal (z-score),[23],0.007
same,glycan array binding signal (z-score),[24],0.064
same,glycan array binding signal (z-score),[25],-0.885
same,glycan array binding signal (z-score),[26],-0.13
same,glycan array binding signal (z-score),[27],13.2
same,glycan array binding signal (z-score),[28],0.328
same,glycan array binding signal (z-score),Neu5Ac(b2-6)GalNAc,-0.895
same,glycan array binding signal (z-score),[29],0.199
same,glycan array binding signal (z-score),[30],-0.837
same,glycan array binding signal (z-score),[31],-0.778
same,glycan array binding signal (z-score),[32],-0.688
same,glycan array binding signal (z-score),[33],-0.334
same,glycan array binding signal (z-score),Neu5Gc(a2-3)Gal(b1-4)Glc,-0.317
same,glycan array binding signal (z-score),[34],-0.718
same,glycan array binding signal (z-score),[35],0.828
same,glycan array binding signal (z-score),[36],0.175
same,glycan array binding signal (z-score),[37],-0.592
same,glycan array binding signal (z-score),Neu5Gc(a2-6)GalNAc,-0.468
same,glycan array binding signal (z-score),[38],-0.177
same,glycan array binding signal (z-score),[39],-0.736
same,glycan array binding signal (z-score),[40],-0.755

# No new results follow: an excerpt of the list.
binder,measurement,setting,value
B1,glycan array binding signal (z-score),[30],-0.837
same,glycan array binding signal (z-score),[31],-0.778
same,glycan array binding signal (z-score),[32],-0.688
